Measured data: PubChem BioAssay AID1259425 (University of Nebraska Medical Center, 2018)
Shown is a random part of about 14,000 deposited reagents. Not all columns of the deposit are shown. The record does not give: the time to read-out.

- Purpose: 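Find knockdowns that reproduce the gene expression pattern seen when KSR1 is lost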 (primary screen)
- System: HCT116 human colon cancer cells
- Reagent: siRNA pool against human genes, 50 nM siRNA
- Measurement: 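After 50 nM siRNA pool, branched-DNA assay measures six marker transcripts per well, minus blank, normalised to the geometric mean of two housekeeping transcripts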
- Reading the numbers: BNIP3L mRNA: higher = more BNIP3L transcript after knockdown

Against SMAD6 (SMAD family member 6), the values are BNIP3L mRNA, set 1 = 0.101. For ZDBF2 (zinc finger DBF-type containing 2), the entry reads BNIP3L mRNA, set 1 = 0.111. RHO (rhodopsin) showed BNIP3L mRNA, set 1 = 0.122. With knock-down of PTGDR (prostaglandin D2 receptor) the results were BNIP3L mRNA, set 1 = 0.246. BMP6 (bone morphogenetic protein 6) gave BNIP3L mRNA, set 1 = 0.0537. With knock-down of PCDHGB5 (protocadherin gamma subfamily B, 5) the results were BNIP3L mRNA, set 1 = 0.119.

After knock-down of RIPOR2 (RHO family interacting cell polarization regulator 2), the screen gave BNIP3L mRNA, set 1 = 0.0988.

Sorted by “BNIP3L mRNA, set 1” (high to low): some entries from above
PCDHGB5 (protocadherin gamma subfamily B, 5) — BNIP3L mRNA, set 1: 0.119
BMP6 (bone morphogenetic protein 6) — BNIP3L mRNA, set 1: 0.0537

Next entries:
Silencing of HOXA10 (homeobox A10) gave: BNIP3L mRNA, set 1 = 0.199. After knock-down of ACP4 (acid phosphatase 4), the record shows BNIP3L mRNA, set 1 = 0.0789. For SKAP1 (src kinase associated phosphoprotein 1), the entry reads BNIP3L mRNA, set 1 = 0.101. After knock-down of CBLIF (cobalamin binding intrinsic factor), the record shows BNIP3L mRNA, set 1 = 0.0644. Silencing of SCARF1 (scavenger receptor class F member 1) gave: BNIP3L mRNA, set 1 = 0.113.
